Experimental data: patent US20200165572A1, “ENGINEERED SUBSTRATES FOR HIGH-THROUGHPUT GENERATION OF 3D MODELS OF TUMOR DORMANCY, RELAPSE AND MICROMETASTASES FOR PHENOTYPE SPECIFIC DRUG DISCOVERY AND DEVELOPMENT” (Arizona Board of Regents on behalf of Arizona State …, priority 2015, published 2020)
For at least one compound, name, drawing or mass did not settle the structure. Some of these results come from one statement about several compounds together.

System: dormant T24 3DTMs
Details: 96 hours

## COC[C@H]1OC(=O)c2coc3c2[C@@]1(C)C1=C(C3=O)[C@@H]2CCC(=O)[C@@]2(C)C[C@H]1OC(C)=O [wortmannin]
Concentrations 5-20 μM
  cell death, single agent comparison: lower cell death compared to single agent bortezomib
Single agent, 0.5 μM
  cell death: < 10%
